Measured values taken from PMC3218952.
No constants are given. Whether binding was seen depends on the method and setting. In cells and extracts the contact can be indirect. Some entries that bind do so weakly or less than the wild type.

Chains of the proteins cited; added tags and fusions are not shown.
UniProt P43268: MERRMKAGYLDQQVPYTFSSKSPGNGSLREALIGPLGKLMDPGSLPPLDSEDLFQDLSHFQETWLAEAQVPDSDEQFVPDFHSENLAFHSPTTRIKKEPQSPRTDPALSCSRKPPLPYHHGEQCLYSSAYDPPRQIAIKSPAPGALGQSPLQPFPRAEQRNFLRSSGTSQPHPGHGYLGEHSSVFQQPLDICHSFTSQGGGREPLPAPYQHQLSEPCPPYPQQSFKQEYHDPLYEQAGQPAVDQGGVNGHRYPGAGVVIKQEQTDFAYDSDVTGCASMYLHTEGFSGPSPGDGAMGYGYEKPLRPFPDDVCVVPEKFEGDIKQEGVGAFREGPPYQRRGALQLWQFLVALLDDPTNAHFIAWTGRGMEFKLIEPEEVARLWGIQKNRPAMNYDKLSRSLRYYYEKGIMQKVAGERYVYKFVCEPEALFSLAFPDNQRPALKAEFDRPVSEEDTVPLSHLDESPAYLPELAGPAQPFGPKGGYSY
UniProt P05412: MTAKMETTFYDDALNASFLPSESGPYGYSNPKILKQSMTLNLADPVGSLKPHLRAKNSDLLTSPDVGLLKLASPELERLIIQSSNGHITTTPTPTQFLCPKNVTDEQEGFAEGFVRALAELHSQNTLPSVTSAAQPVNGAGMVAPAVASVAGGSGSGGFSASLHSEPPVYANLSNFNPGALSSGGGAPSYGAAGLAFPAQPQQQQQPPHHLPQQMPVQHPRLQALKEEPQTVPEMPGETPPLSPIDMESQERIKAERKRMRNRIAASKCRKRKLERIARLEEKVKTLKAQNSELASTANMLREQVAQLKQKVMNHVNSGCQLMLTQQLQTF

Molecular target: Polyomavirus enhancer activator 3 (PEA3/E1AF/ETV4) (UniProt P43268)
Assay: co-IP; MDA-MB-231 cells transfected with PEA3-pcDNA3.1 for 48 h, cross-linked with 1% formaldehyde, lysed in SDS lysis buffer and sonicated; diluted lysate incubated overnight with PEA3 antibody (sc-113X) or mouse IgG, protein G-plus agarose, washed three times in PBS; Western blot for PEA3 and c-JUN

binding: binds
Substance: c-JUN (from UniProt P05412 1-331)
